Reference: the supplement of paper PMC10849652
Some of the results follow.

Protein sequences, listed by entry. Tags and fused reporters are not part of them. Lines headed by an entry give the natural chain unless they say otherwise; changes in a name come on top.
UniProt O43426, whole entry, looked up: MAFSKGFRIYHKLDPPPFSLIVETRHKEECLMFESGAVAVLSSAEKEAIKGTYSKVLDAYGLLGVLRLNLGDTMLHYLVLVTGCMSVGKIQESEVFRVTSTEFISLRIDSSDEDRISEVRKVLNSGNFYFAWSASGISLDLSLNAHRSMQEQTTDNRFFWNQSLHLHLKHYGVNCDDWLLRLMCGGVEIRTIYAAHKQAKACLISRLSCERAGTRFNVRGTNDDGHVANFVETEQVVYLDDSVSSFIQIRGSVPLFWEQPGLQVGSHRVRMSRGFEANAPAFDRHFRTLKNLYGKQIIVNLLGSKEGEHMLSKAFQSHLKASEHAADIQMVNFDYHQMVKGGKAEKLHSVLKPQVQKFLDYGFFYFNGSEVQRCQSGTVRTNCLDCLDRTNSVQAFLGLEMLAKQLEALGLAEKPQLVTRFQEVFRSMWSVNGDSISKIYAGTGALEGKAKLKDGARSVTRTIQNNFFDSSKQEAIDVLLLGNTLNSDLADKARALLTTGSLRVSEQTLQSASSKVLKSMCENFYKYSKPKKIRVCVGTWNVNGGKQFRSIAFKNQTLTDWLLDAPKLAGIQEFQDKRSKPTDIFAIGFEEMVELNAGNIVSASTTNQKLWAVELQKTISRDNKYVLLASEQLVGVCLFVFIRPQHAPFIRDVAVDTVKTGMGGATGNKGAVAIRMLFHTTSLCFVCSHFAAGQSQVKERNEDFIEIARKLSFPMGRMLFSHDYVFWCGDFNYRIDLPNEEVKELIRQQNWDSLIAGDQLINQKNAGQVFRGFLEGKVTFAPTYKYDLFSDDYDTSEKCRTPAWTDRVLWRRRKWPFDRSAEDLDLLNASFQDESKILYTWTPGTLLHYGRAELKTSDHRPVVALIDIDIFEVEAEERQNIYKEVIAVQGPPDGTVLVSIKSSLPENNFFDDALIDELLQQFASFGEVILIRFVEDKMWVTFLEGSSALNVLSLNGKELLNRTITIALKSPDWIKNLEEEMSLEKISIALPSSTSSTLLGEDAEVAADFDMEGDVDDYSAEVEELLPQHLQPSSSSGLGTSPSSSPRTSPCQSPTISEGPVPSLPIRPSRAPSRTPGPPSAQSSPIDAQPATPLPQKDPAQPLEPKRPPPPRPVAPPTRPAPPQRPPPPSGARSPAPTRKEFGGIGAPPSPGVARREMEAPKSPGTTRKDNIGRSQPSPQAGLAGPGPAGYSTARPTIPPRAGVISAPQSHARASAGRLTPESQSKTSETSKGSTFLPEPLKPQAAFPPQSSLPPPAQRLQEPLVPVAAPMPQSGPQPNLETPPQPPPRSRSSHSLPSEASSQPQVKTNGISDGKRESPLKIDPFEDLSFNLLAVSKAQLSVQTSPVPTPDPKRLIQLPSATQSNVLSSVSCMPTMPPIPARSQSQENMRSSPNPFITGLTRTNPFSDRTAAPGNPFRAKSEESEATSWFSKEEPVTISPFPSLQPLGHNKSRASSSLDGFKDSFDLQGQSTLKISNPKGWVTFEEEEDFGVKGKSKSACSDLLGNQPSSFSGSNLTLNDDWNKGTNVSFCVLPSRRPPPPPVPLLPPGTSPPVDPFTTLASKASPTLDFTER
UniProt Q6P1X5, whole entry, looked up: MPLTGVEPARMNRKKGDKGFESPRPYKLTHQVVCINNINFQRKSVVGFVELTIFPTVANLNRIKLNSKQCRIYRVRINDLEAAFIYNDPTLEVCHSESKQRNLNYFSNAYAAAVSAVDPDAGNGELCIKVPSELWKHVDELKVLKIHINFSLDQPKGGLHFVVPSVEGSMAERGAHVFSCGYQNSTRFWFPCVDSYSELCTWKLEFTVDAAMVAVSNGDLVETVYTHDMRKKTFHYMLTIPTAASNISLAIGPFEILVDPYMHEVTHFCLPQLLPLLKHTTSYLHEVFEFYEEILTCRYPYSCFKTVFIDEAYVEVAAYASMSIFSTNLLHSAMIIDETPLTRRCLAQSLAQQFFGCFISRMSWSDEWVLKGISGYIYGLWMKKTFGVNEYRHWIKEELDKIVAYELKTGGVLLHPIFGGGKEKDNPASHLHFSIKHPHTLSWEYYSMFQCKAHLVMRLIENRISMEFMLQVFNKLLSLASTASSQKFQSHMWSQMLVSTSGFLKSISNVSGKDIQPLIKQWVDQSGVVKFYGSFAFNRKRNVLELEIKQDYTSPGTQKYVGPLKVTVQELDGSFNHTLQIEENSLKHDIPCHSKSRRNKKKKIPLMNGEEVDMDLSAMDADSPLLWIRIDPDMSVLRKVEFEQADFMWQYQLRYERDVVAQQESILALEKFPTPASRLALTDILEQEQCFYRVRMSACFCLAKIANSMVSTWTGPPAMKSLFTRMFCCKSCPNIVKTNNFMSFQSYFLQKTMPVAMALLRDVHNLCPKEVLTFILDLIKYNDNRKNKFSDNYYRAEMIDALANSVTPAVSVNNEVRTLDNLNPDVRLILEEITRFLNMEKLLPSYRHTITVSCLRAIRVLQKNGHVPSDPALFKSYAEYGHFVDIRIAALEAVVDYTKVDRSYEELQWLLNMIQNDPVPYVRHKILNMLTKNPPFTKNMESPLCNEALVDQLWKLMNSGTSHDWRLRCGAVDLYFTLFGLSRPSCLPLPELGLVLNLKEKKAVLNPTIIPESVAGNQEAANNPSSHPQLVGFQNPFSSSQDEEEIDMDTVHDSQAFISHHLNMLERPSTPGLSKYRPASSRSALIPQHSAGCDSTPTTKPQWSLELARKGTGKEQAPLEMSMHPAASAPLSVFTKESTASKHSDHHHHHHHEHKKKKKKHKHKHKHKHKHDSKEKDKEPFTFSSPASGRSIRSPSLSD
UniProt Q13277: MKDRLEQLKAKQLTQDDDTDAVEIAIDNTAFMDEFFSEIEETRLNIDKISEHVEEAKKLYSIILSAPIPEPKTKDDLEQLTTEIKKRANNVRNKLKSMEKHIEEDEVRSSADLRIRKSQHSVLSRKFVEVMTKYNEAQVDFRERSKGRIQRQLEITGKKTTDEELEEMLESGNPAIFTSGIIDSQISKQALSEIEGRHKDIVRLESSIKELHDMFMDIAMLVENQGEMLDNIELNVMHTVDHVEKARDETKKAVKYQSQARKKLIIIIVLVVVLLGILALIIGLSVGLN
UniProt Q9Y5B9, whole entry, looked up: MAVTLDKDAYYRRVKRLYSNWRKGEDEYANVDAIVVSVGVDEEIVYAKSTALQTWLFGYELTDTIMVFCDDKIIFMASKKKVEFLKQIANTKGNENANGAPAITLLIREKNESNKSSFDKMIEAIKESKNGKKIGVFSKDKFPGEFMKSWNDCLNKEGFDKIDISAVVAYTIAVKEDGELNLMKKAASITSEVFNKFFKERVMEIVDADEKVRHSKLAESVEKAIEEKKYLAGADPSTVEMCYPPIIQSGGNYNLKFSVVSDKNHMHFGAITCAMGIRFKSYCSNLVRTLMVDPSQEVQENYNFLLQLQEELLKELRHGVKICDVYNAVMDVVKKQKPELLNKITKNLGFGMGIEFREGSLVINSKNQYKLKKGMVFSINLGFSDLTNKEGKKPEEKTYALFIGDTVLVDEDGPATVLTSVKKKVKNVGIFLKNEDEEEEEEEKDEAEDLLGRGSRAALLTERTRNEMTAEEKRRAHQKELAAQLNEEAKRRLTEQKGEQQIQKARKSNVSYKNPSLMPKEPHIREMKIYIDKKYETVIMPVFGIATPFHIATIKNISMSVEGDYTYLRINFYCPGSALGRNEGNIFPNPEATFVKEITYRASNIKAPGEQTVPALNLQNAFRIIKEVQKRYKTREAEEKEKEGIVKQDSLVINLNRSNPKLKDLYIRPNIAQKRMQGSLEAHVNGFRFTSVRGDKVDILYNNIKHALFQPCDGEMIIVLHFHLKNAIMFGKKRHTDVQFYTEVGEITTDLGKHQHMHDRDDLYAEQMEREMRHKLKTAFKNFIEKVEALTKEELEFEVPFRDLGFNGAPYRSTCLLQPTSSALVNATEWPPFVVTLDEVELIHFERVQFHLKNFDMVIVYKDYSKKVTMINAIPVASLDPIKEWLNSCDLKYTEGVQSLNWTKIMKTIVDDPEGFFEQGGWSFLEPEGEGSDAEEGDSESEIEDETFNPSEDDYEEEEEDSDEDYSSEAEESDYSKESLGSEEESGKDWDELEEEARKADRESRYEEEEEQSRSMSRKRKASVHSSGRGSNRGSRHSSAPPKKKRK
UniProt Q8N300: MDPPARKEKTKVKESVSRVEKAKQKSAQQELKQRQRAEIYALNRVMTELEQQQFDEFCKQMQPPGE
UniProt P63165, whole entry, looked up: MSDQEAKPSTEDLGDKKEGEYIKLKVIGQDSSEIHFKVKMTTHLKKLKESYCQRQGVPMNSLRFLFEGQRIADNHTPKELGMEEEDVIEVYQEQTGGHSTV
UniProt Q9NVG8: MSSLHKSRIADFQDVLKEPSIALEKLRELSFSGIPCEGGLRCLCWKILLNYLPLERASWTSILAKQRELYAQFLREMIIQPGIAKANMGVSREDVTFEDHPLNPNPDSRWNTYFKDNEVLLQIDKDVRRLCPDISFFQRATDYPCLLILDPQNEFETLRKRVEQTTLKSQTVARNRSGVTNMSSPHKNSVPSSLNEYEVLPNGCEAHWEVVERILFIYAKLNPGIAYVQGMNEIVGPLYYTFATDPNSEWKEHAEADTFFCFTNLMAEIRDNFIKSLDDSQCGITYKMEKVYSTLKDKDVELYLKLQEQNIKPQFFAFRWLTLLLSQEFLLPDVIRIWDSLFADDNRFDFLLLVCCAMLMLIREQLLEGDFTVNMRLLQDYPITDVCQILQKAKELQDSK
UniProt Q9NRL3: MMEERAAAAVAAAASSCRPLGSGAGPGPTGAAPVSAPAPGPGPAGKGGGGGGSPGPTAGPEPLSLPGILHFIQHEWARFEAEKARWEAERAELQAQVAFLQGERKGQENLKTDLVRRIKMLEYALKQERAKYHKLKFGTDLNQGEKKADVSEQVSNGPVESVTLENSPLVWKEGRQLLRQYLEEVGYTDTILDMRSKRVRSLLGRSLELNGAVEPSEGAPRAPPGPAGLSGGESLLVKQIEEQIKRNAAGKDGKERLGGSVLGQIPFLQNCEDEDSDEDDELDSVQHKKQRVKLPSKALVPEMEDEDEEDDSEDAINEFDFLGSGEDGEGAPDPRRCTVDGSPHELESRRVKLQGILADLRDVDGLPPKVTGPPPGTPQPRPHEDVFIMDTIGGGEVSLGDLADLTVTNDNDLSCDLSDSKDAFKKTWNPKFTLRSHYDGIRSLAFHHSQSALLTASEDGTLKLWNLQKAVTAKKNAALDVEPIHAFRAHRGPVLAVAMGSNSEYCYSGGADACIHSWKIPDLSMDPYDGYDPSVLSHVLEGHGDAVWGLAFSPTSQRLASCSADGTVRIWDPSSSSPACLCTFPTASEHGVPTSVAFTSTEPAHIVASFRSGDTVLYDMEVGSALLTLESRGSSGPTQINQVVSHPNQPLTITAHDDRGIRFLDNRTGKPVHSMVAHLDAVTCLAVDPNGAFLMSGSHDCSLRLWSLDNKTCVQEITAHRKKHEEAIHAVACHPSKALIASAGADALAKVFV
UniProt Q15750: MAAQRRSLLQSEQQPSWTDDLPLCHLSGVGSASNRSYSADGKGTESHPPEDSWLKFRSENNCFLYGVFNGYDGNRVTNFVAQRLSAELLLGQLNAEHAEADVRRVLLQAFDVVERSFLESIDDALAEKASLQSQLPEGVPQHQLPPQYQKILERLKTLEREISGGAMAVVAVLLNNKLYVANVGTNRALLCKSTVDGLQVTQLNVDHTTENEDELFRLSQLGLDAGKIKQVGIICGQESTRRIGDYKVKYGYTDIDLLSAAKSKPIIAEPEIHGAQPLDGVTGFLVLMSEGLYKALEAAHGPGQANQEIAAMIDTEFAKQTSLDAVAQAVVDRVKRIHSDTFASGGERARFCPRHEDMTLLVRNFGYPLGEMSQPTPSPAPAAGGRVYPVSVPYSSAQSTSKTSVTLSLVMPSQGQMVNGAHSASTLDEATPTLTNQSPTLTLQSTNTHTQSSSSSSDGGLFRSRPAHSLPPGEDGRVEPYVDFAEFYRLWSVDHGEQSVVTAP
UniProt O15260: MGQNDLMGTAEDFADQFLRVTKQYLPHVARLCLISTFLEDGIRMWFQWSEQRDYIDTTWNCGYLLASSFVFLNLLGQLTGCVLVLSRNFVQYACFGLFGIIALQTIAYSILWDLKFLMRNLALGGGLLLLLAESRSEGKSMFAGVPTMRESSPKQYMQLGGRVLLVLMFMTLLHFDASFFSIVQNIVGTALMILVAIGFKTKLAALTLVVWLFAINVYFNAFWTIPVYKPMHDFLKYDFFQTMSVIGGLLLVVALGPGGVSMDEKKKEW
UniProt Q9P2W9: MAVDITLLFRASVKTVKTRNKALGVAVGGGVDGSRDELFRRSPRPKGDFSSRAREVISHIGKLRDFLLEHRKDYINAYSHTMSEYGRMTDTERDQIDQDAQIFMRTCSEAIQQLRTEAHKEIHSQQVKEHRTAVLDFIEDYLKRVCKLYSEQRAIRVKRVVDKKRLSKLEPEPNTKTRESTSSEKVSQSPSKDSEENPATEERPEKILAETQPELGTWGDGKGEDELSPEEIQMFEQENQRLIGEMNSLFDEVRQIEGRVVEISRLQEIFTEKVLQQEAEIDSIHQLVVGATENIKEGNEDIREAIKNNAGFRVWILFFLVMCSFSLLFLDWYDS

What was measured:
Test in all cases: log2 fold change, soluble protein after heating vs DMSO (PISA); higher = thermal stabilisation; K562 cells, 10 uM, 30 min; active = over 0.2 and 3.5 SD of the protein, either way, in both replicates (recomputed)
[1] = compound: NC(=O)Nc1cc(-c2cccc(F)c2)sc1C(=O)N[C@H]1CCCNC1
Outline: (§1)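 K562 cells (2×10^6 cells/mL) were treated with 10 μM compound for 30 min, and aliquots were heated for 3 min over 48°C-58°C. Pooled aliquots were extracted in PBS with 0.5% NP-40 at 4°C, and the supernatant after 21,000xg for 90 min was measured by TMTpro 16plex LC-MS/MS with channel sums equalised. Reported thermal stability, relative to control samples and from duplicates, is a log2 fold change.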

[2] = compound: NC(=O)c1cnc(N[C@@H]2CCCC[C@@H]2N)nc1Nc1cccc(-n2nccn2)c1
Outline: as §1

[3] = compound: NC1(c2ccc(-c3nc4ccn5c(=O)[nH]nc5c4cc3-c3ccccc3)cc2)CCC1
Outline: as §1

[4] = compound: NCC(=O)Nc1ccc(-n2nc(C(F)(F)F)cc2-c2ccc3c(ccc4ccccc43)c2)cc1
Outline: as §1

entinostat = compound: Nc1ccccc1NC(=O)c1ccc(CNC(=O)OCc2cccnc2)cc1 [entinostat]
Outline: as §1

vorinostat = compound: O=C(CCCCCCC(=O)Nc1ccccc1)NO [vorinostat]
Outline: as §1

citarinostat = compound: O=C(CCCCCCNC(=O)c1cnc(N(c2ccccc2)c2ccccc2Cl)nc1)NO [citarinostat]
Outline: as §1

silmitasertib = compound: O=C(O)c1ccc2c(c1)nc(Nc1cccc(Cl)c1)c1ccncc12 [silmitasertib]
Outline: as §1

[5] = compound: O=C1NC(=O)C(c2cnc3ccccn23)=C1c1cn2c3c(cc(F)cc13)CN(C(=O)N1CCCCC1)CC2
Outline: as §1

[6] = compound: c1cc(OCCN2CCCCC2)cc(-c2n[nH]c3ccc(-c4nnc[nH]4)cc23)c1
Outline: as §1

Measured: log2 fold change

STRIP1 (UniProt Q5VSL9)
inactive: [1] 0.101 | [2] 0.021 | [3] -0.023 | [4] 0.038 | entinostat 0.026 | vorinostat -0.011 | citarinostat 0.103 | silmitasertib -0.001 | [5] 0.078 | [6] 0.021

TANK (UniProt Q92844)
inactive: [1] 0.076 | [2] 0.041 | [3] -0.035 | [4] 0.023 | entinostat -0.001 | vorinostat -0.084 | citarinostat -0.022 | silmitasertib 0.064 | [5] 0.028 | [6] 0.01

TAF10 (UniProt Q12962)
inactive: [1] 0.022 | [2] -0.005 | [3] 0.005 | [4] 0.101 | entinostat 0.094 | vorinostat -0.053 | citarinostat 0.038 | silmitasertib 0.003 | [5] 0.1 | [6] 0.004

Reprinted from the listing (2 entries):
STRIP1 (UniProt Q5VSL9)
inactive: [1] 0.101 | [2] 0.021 | [3] -0.023 | [4] 0.038 | entinostat 0.026 | vorinostat -0.011 | citarinostat 0.103 | silmitasertib -0.001 | [5] 0.078 | [6] 0.021

TANK (UniProt Q92844)
inactive: [1] 0.076 | [2] 0.041 | [3] -0.035 | [4] 0.023 | entinostat -0.001 | vorinostat -0.084 | citarinostat -0.022 | silmitasertib 0.064 | [5] 0.028 | [6] 0.01

The list goes on:

SUPT4H1 (UniProt P63272)
inactive: [1] 0.023 | [2] -0.085 | [3] 0.121 | [4] -0.042 | entinostat 0.019 | vorinostat -0.025 | citarinostat 0.034 | silmitasertib -0.156 | [5] -0.1 | [6] 0.053

SYNJ1 (UniProt O43426)
inactive: [1] -0.105 | [2] 0.027 | [3] 0.063 | [4] -0.017 | entinostat 0.007 | vorinostat -0.001 | citarinostat -0.036 | silmitasertib 0.011 | [5] -0.092 | [6] -0.104

SULT1A1 (UniProt P50225)
inactive: [1] -0.049 | [2] 0.039 | [3] -0.179 | [4] 0.123 | entinostat 0.133 | vorinostat 0.063 | citarinostat 0.056 | silmitasertib -0.038 | [5] -0.095 | [6] 0.032

SUMF2 (UniProt Q8NBJ7)
inactive: [1] -0.029 | [2] -0.079 | [3] -0.066 | [4] -0.027 | entinostat 0.059 | vorinostat -0.042 | citarinostat -0.022 | silmitasertib 0.037 | [5] -0.015 | [6] -0.097

TAF2 (UniProt Q6P1X5)
inactive: [1] -0.005 | [2] -0.029 | [3] 0.131 | [4] 0.03 | entinostat -0.035 | vorinostat -0.055 | citarinostat 0 | silmitasertib 0.071 | [5] 0.105 | [6] -0.114

STX3 (UniProt Q13277)
inactive: [1] -0.022 | [2] -0.021 | [3] -0.063 | [4] 0.111 | entinostat 0.008 | vorinostat -0.024 | citarinostat 0.171 | silmitasertib 0.023 | [5] -0.035 | [6] 0.101

SUCLG1 (UniProt P53597)
inactive: [1] -0.037 | [2] -0.077 | [3] -0.106 | [4] -0.059 | entinostat 0.012 | vorinostat 0 | citarinostat 0.043 | silmitasertib -0.037 | [5] -0.073 | [6] -0.049

SWAP70 (UniProt Q9UH65)
inactive: [1] 0.011 | [2] 0.001 | [3] -0.03 | [4] -0.007 | entinostat 0.01 | vorinostat 0.012 | citarinostat 0.052 | silmitasertib 0.004 | [5] -0.082 | [6] -0.012

SUPT16H (UniProt Q9Y5B9)
inactive: [1] -0.017 | [2] -0.111 | [3] -0.183 | [4] -0.158 | entinostat 0.207 | vorinostat 0.178 | citarinostat 0.198 | silmitasertib 0.109 | [5] -0.227 | [6] 0.025

STX5 (UniProt Q13190)
inactive: [1] -0.03 | [2] 0.026 | [3] -0.152 | [4] -0.065 | entinostat 0.019 | vorinostat 0.042 | citarinostat 0.044 | silmitasertib 0.025 | [5] 0.074 | [6] -0.079

STX16 isoform 2 (UniProt O14662)
inactive: [1] -0.037 | [2] 0.14 | [3] -0.02 | [4] 0.026 | entinostat -0.079 | vorinostat 0.042 | citarinostat -0.025 | silmitasertib 0.027 | [5] -0.259 | [6] -0.086

SVBP (UniProt Q8N300)
inactive: [1] 0.125 | [2] 0.082 | [3] 0.142 | [4] 0.099 | entinostat -0.037 | vorinostat -0.107 | citarinostat -0.056 | silmitasertib 0.001 | [5] 0.047 | [6] 0.03

SUMO1 (UniProt P63165)
inactive: [1] -0.006 | [2] -0.116 | [3] 0.071 | [4] -0.074 | entinostat -0.01 | vorinostat -0.086 | citarinostat -0.063 | silmitasertib -0.012 | [5] 0.045 | [6] -0.087

TBC1D13 (UniProt Q9NVG8)
inactive: [1] -0.021 | [2] 0.031 | [3] -0.07 | [4] -0.014 | entinostat -0.03 | vorinostat -0.014 | citarinostat 0.039 | silmitasertib 0.009 | [5] -0.087 | [6] -0.015

STK39 (UniProt Q9UEW8)
inactive: [1] -0.064 | [2] 0.034 | [3] -0.146 | [4] -0.028 | entinostat 0.069 | vorinostat 0.063 | citarinostat 0.051 | silmitasertib 0.003 | [5] 0.003 | [6] -0.072

STXBP5 (UniProt Q5T5C0)
inactive: [1] 0.006 | [2] -0.022 | [3] -0.145 | [4] -0.033 | entinostat -0.011 | vorinostat 0.004 | citarinostat 0.024 | silmitasertib 0.041 | [5] -0.04 | [6] -0.003

STRN4 isoform 3 (UniProt Q9NRL3)
inactive: [1] -0.04 | [2] 0.005 | [3] -0.054 | [4] -0.018 | entinostat 0.006 | vorinostat -0.126 | citarinostat 0.031 | silmitasertib 0 | [5] -0.155 | [6] -0.045

TARSL2 (UniProt A2RTX5)
inactive: [1] -0.023 | [2] -0.042 | [3] -0.167 | [4] -0.064 | entinostat -0.011 | vorinostat 0.032 | citarinostat 0.008 | silmitasertib -0.026 | [5] -0.004 | [6] -0.005

TAB1 (UniProt Q15750)
inactive: [1] 0.017 | [2] -0.001 | [3] -0.153 | [4] -0.116 | entinostat 0.124 | vorinostat 0.054 | citarinostat 0.042 | silmitasertib 0.039 | [5] 0.004 | [6] -0.046

STX12 (UniProt Q86Y82)
inactive: [1] -0.02 | [2] 0.109 | [3] -0.04 | [4] 0.024 | entinostat -0.09 | vorinostat -0.019 | citarinostat 0.017 | silmitasertib -0.029 | [5] -0.022 | [6] -0.001

SURF4 (UniProt O15260)
inactive: [1] -0.002 | [2] -0.011 | [3] -0.01 | [4] 0.021 | entinostat -0.02 | vorinostat -0.046 | citarinostat 0.031 | silmitasertib 0.022 | [5] 0.028 | [6] -0.037

TAPT1 (UniProt Q6NXT6)
inactive: [1] -0.016 | [2] -0.038 | [3] -0.057 | [4] 0 | entinostat -0.082 | vorinostat -0.067 | citarinostat 0.017 | silmitasertib 0.024 | [5] 0.017 | [6] 0.01

STX7 (UniProt O15400)
inactive: [1] 0.036 | [2] -0.02 | [3] -0.072 | [4] 0.011 | entinostat -0.028 | vorinostat -0.093 | citarinostat -0.002 | silmitasertib 0.017 | [5] -0.006 | [6] 0.079

STX18 (UniProt Q9P2W9)
inactive: [1] -0.058 | [2] -0.055 | [3] -0.091 | [4] -0.044 | entinostat 0.035 | vorinostat 0.071 | citarinostat -0.007 | silmitasertib 0.001 | [5] 0.059 | [6] -0.041

SYNGR2 (UniProt O43760)
inactive: [1] -0.016 | [2] -0.014 | [3] 0.032 | [4] -0.006 | entinostat 0.002 | vorinostat -0.007 | citarinostat -0.022 | silmitasertib 0.026 | [5] -0.005 | [6] 0.077

STX10 (UniProt O60499)
inactive: [1] 0.026 | [2] 0.07 | [3] 0.013 | [4] -0.022 | entinostat -0.023 | vorinostat -0.013 | citarinostat -0.019 | silmitasertib 0.089 | [5] -0.034 | [6] 0.062
